These are yes or no findings as the source states them, for the method shown. Binding seen in cells or lysates may run through a third protein. Some results given as binding are weak or reduced against the parent protein; the word gives no strength.
Target: T1, Adenosine Deaminase Acting on RNA 1 (ADAR1) (human (endogenous in MDA-MB-231)) (UniProt P55265)
T1 sequence: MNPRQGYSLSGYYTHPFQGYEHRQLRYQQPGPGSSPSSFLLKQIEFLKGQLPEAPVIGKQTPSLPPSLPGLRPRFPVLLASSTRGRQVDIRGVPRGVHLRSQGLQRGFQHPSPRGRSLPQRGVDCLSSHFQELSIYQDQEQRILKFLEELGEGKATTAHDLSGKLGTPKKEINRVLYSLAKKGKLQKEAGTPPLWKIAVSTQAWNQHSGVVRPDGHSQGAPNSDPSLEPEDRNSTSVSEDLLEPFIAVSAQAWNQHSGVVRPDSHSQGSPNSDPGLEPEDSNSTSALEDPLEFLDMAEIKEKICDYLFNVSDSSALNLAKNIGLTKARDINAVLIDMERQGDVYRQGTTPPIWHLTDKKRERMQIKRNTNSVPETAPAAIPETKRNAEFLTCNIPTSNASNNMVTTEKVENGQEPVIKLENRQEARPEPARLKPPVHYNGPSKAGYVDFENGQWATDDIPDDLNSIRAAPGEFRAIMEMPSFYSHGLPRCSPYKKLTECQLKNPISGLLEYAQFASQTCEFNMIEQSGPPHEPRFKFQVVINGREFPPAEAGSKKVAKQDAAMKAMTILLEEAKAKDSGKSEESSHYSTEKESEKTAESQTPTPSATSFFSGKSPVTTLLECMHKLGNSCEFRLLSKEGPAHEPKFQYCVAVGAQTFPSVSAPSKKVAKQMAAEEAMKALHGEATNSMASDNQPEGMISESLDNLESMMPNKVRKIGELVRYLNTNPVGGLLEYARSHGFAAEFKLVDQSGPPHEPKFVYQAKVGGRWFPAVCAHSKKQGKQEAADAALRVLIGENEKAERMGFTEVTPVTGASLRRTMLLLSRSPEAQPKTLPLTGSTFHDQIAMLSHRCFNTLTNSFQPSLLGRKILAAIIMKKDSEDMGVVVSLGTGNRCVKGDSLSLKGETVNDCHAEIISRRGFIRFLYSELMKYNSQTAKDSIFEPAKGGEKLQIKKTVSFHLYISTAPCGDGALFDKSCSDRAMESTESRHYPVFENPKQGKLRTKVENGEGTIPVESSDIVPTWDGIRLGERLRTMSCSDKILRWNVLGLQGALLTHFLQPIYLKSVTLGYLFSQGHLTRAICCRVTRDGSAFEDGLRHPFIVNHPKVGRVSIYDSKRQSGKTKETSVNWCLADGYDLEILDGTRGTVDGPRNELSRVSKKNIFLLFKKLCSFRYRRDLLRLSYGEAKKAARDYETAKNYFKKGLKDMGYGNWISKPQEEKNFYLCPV
Assay: co-IP; MDA-MB-231 lysate (IP lysis buffer), 1 ug rabbit polyclonal anti-ADAR1 on protein A/G beads, overnight 4 C, four washes; normal rabbit IgG as control; blot with rabbit polyclonal anti-KYNU

binding: binds
B1: Kynureninase (KYNU) (enzyme, UniProt Q16719 1-465)
chain: MEPSSLELPADTVQRIAAELKCHPTDERVALHLDEEDKLRHFRECFYIPKIQDLPPVDLSLVNKDENAIYFLGNSLGLQPKMVKTYLEEELDKWAKIAAYGHEVGKRPWITGDESIVGLMKDIVGANEKEIALMNALTVNLHLLMLSFFKPTPKRYKILLEAKAFPSDHYAIESQLQLHGLNIEESMRMIKPREGEETLRIEDILEVIEKEGDSIAVILFSGVHFYTGQHFNIPAITKAGQAKGCYVGFDLAHAVGNVELYLHDWGVDFACWCSYKYLNAGAGGIAGAFIHEKHAHTIKPALVGWFGHELSTRFKMDNKLQLIPGVCGFRISNPPILLVCSLHASLEIFKQATMKALRKKSVLLTGYLEYLIKHNYGKDKAATKKPVVNIITPSHVEERGCQLTITFSVPNKDVFQELEKRGVVCDKRNPNGIRVAPVPLYNSFHDVYKFTNLLTSILDSAETKN
